Results reported in the supplement of paper PMC11732987, “Enantioselective OTUD7B fragment discovery through chemoproteomics screening and high-throughput optimisation” (Communications Chemistry, 2025).
This is one part of the list. The data scatter; read single values as rough.

The molecules below were run against SARS1 C162 (UniProt Q5T5C7) (assay: log2 mean competition ratio of IA-DTB cysteine labelling (DMSO/compound) (log2 ratio); higher = stronger cysteine engagement by compound). Conditions: 50 µM; treatment time: 4 h; cell line lysate: HEK293T.
Experimental: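 IA-DTB competitive cysteine chemoproteomics in HEK293T RIPA lysate. Lysates were treated with compound 29 or 30 at 50 or 200 µM for 4 h, then IA-DTB (500 µM, 1 h), trypsin-digested, NeutrAvidin-enriched and analysed by diaPASEF. Competition ratio = intensity DMSO / intensity compound (n=4 treated, n=64 DMSO); binding: mean log2 CR ≥ 1 and p ≤ 0.05 plus QC filters. Target is the cysteine site.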

| SMILES | log2 mean competition ratio |
| --- | --- |
| O=C(CCl)N[C@H]1CCCc2ccccc21 | 0.462 |
| O=C(CCl)N[C@@H]1CCCc2ccccc21 | 0.202 |

Same assay, conditions: 200 µM; treatment time: 4 h; cell line lysate: HEK293T

| SMILES | log2 mean competition ratio |
| --- | --- |
| O=C(CCl)N[C@H]1CCCc2ccccc21 | 0.0736 |
| O=C(CCl)N[C@@H]1CCCc2ccccc21 | -0.264 |
